In experiment [1] the target is Rab11A(Q69L)-BirA*-HA-MAO (human). As to the kind of experiment: proximity labelling; MitoID: GTPase-BirA*-HA-MAO chimera on mitochondria of transiently transfected HEK293T cells, 50 uM biotin 18 h, streptavidin beads, mass spectrometry, biological triplicates; hits by WD scores and volcano plots against the GDP-locked forms.
In experiment [2] the target is Rab5A(Q79L)-BirA*-HA-MAO (human) (UniProt P20339). The experiment is described as above.

Amino acid sequences for entries named in this document (tags omitted). A change or cut given only in a name is not applied to a line headed by its entry. Chains listed by the source or under a name are the forms on record and can include a tag or linker.
Rab5A(Q79L)-BirA*-HA-MAO (P20339, form named): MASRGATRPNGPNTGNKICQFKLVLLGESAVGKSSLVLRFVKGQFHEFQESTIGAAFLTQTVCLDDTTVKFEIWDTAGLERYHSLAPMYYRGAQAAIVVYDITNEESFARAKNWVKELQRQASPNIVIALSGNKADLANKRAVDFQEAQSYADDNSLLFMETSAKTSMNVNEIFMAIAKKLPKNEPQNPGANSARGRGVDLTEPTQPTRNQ

Results are given in words; binding and its absence hold for the method and conditions named. Binding seen in cells or lysates may run through a third protein. Here binding means that the protein was enriched with, or labelled near, the bait; the list need not be complete.

B1: EVI5 (protein, UniProt O60447 1-810)
chain: MVTNKMTAAFRNPSGKQVATDKVAEKLSSTLSWVKNTVSHTVSQMASQVASPSTSLHTTSSSTTLSTPALSPSSPSQLSPDDLELLAKLEEQNRLLETDSKSLRSVNGSRRNSGSSLVSSSSASSNLSHLEEDSWILWGRIVNEWEDVRKKKEKQVKELVHKGIPHHFRAIVWQLLCSAQSMPIKDQYSELLKMTSPCEKLIRRDIARTYPEHNFFKEKDSLGQEVLFNVMKAYSLVDREVGYCQGSAFIVGLLLMQMPEEEAFCVFVKLMQDYRLRELFKPSMAELGLCMYQFECMIQEHLPELFVHFQSQSFHTSMYASSWFLTIFLTTFPLPIATRIFDIFMSEGLEIVFRVGLALLQMNQAELMQLDMEGMLQHFQKVIPHQFDGVPDKLIQAAYQVKYNSKKMKKLEKEYTTIKTKEMEEQVEIKRLRTENRLLKQRIETLEKHKCSSNYNEDFVLQLEKELVQARLSEAESQCALKEMQDKVLDIEKRNNSLPDENNIARLQEELIAVKLREAEAIMGLKELRQQVKDLEEHWQRHLARTTGRWKDPPKKNAMNELQDELMTIRLREAETQAEIREIKQRMMEMETQNQINSNHLRRAEQEVISLQEKVQYLSAQNKGLLTQLSEAKRKQAEIECKNKEEVMAVRLREADSIAAVAELRQHIAELEIQKEEGKLQGQLNKSDSNQYIGELKDQIAELNHELRCLKGQRGFSGQPPFDGIHIVNHLIGDDESFHSSDEDFIDNSLQETGVGFPLHGKSGSMSLDPAVADGSESETEDSVLETRESNQVVQKERPPRRRESYSTTV
As to B1, the binding entry in experiment [1] is “binds”.

B2: RELCH/KIAA1468 (protein, UniProt Q9P260 1-1216)
chain: MAAMAPGGSGSGGGVNPFLSDSDEDDDEVAATEERRAVLRLGAGSGLDPGSAGSLSPQDPVALGSSARPGLPGEASAAAVALGGTGETPARLSIDAIAAQLLRDQYLLTALELHTELLESGRELPRLRDYFSNPGNFERQSGTPPGMGAPGVPGAAGVGGAGGREPSTASGGGQLNRAGSISTLDSLDFARYSDDGNRETDEKVAVLEFELRKAKETIQALRANLTKAAEHEVPLQERKNYKSSPEIQEPIKPLEKRALNFLVNEFLLKNNYKLTSITFSDENDDQDFELWDDVGLNIPKPPDLLQLYRDFGNHQVTGKDLVDVASGVEEDELEALTPIISNLPPTLETPQPAENSMLVQKLEDKISLLNSEKWSLMEQIRRLKSEMDFLKNEHFAIPAVCDSVQPPLDQLPHKDSEDSGQHPDVNSSDKGKNTDIHLSISDEADSTIPKENSPNSFPRREREGMPPSSLSSKKTVHFDKPNRKLSPAFHQALLSFCRMSADSRLGYEVSRIADSEKSVMLMLGRCLPHIVPNVLLAKREELIPLILCTACLHPEPKERDQLLHILFNLIKRPDDEQRQMILTGCVAFARHVGPTRVEAELLPQCWEQINHKYPERRLLVAESCGALAPYLPKEIRSSLVLSMLQQMLMEDKADLVREAVIKSLGIIMGYIDDPDKYHQGFELLLSALGDPSERVVSATHQVFLPAYAAWTTELGNLQSHLILTLLNKIEKLLREGEHGLDEHKLHMYLSALQSLIPSLFALVLQNAPFSSKAKLHGEVPQIEVTRFPRPMSPLQDVSTIIGSREQLAVLLQLYDYQLEQEGTTGWESLLWVVNQLLPQLIEIVGKINVTSTACVHEFSRFFWRLCRTFGKIFTNTKVKPQFQEILRLSEENIDSSAGNGVLTKATVPIYATGVLTCYIQEEDRKLLVGFLEDVMTLLSLSHAPLDSLKASFVELGANPAYHELLLTVLWYGVVHTSALVRCTAARMFELTLRGMSEALVDKRVAPALVTLSSDPEFSVRIATIPAFGTIMETVIQRELLERVKMQLASFLEDPQYQDQHSLHTEIIKTFGRVGPNAEPRFRDEFVIPHLHKLALVNNLQIVDSKRLDIATHLFEAYSALSCCFISEDLMVNHFLPGLRCLRTDMEHLSPEHEVILSSMIKECEQKVENKTVQEPQGSMSIAASLVSEDTKTKFLNKMGQLTTSGAMLANVFQRKK
On to B2, for which the binding entry in experiment [2] and in experiment [1] was “binds” each time.

B3: WDR44/Rab11BP (protein, UniProt Q5JSH3 1-913)
chain: MASESDTEEFYDAPEDVHLGGGYPVGSPGKVGLSTFKETENTAYKVGNESPVQELKQDVSKKIIESIIEESQKVLQLEDDSLDSKGKELSDQATASPIVARTDLSNIPGLLAIDQVLPEESQKAESQNTFEETELELKKCFPSDETCEKPVDETTKLTQTSSTEQLNVLETETEVLNKEAVEVKGGGDVLEPVSSDSLSTKDFAAVEEVAPAKPPRHLTPEPDIVASTKKPVPARPPPPTNFPPPRPPPPSRPAPPPRKRKSELEFETLKTPDIDVPKENITSDSLLTASMASESTVKDSQPSLDLASATSGDKIVTAQENGKAPDGQTVAGEVMGPQRPRSNSGRELTDEEILASVMIKNLDTGEEIPLSLAEEKLPTGINPLTLHIMRRTKEYVSNDAAQSDDEEKLQSQPTDTDGGRLKQKTTQLKKFLGKSVKRAKHLAEEYGERAINKVKSVRDEVFHTDQDDPSSSDDEGMPYTRPVKFKAAHGFKGPYDFDQIKVVQDLSGEHMGAVWTMKFSHCGRLLASAGQDNVVRIWALKNAFDYFNNMRMKYNTEGRVSPSPSQESLSSSKSDTDTGVCSGTDEDPDDKNAPFRQRPFCKYKGHTADLLDLSWSKNYFLLSSSMDKTVRLWHISRRECLCCFQHIDFVTAIAFHPRDDRYFLSGSLDGKLRLWNIPDKKVALWNEVDGQTKLITAANFCQNGKYAVIGTYDGRCIFYDTEHLKYHTQIHVRSTRGRNKVGRKITGIEPLPGENKILVTSNDSRIRLYDLRDLSLSMKYKGYVNSSSQIKASFSHDFTYLVSGSEDKYVYIWSTYHDLSKFTSVRRDRNDFWEGIKAHNAVVTSAIFAPNPSLMLSLDVQSEKSEGNEKSEDAEVLDATPSGIMKTDNTEVLLSADFTGAIKVFVNKRKNVS
B3: the binding entry in experiment [1] was “binds”.

B4: Vps8 subunit of the CORVET complex (protein, UniProt Q8N3P4 1-1428)
chain: MENEPDHENVEQSLCAKTSEEELNKSFNLEASLSKFSYIDMDKELEFKNDLIDDKEFDIPQVDTPPTLESILNETDDEDESFILEDPTLLNIDTIDSHSYDTSSVASSDSGDRTNLKRKKKLPDSFSLHGSVMRHSLLKGISAQIVSAADKVDAGLPTAIAVSSLIAVGTSHGLALIFGKDQNQALRLCLGSTSVGGQYGAISALSINNDCSRLLCGFAKGQITMWDLASGKLLRSITDAHPPGTAILHIKFTDDPTLAICNDSGGSVFELTFKRVMGVRTCESRCLFSGSKGEVCCIEPLHSKPELKDHPITQFSLLAMASLTKILVIGLKPSLKVWMTFPYGRMDPSSVPLLAWHFVAVQNYVNPMLAFCRGDVVHFLLVKRDESGAIHVTKQKHLHLYYDLINFTWINSRTVVLLDSVEKLHVIDRQTQEELETVEISEVQLVYNSSHFKSLATGGNVSQALALVGEKACYQSISSYGGQIFYLGTKSVYVMMLRSWRERVDHLLKQDCLTEALALAWSFHEGKAKAVVGLSGDASKRKAIVADRMVEILFHYADRALKKCPDQGKIQVMEQHFQDMVPVIVDYCLLLQRKDLLFSQMYDKLSENSVAKGVFLECLEPYILSDKLVGITPQVMKDLIVHFQDKKLMENVEALIVHMDITSLDIQQVVLMCWENRLYDAMIYVYNRGMNEFISPMEKLFRVIAPPLNAGKTLTDEQVVMGNKLLVYISCCLAGRAYPLGDIPEDLVPLVKNQVFEFLIRLHSAEASPEEEIYPYIRTLLHFDTREFLNVLALTFEDFKNDKQAVEYQQRIVDILLKVMVENSDFTPSQVGCLFTFLARQLAKPDNTLFVNRTLFDQVLEFLCSPDDDSRHSERQQVLLELLQAGGIVQFEESRLIRMAEKAEFYQICEFMYEREHQYDKIIDCYLRDPLREEEVFNYIHNILSIPGHSAEEKQSVWQKAMDHIEELVSLKPCKAAELVATHFSGHIETVIKKLQNQVLLFKFLRSLLDPREGIHVNQELLQISPCITEQFIELLCQFNPTQVIETLQVLECYRLEETIQITQKYQLHEVTAYLLEKKGDIHGAFLIMLERLQSKLQEVTHQGENTKEDPSLKDVEDTMVETIALCQRNSHNLNQQQREALWFPLLEAMMAPQKLSSSAIPHLHSEALKSLTMQVLNSMAAFIALPSILQRILQDPVYGKGKLGEIQGLILGMLDTFNYEQTLLETTTSLLNQDLHWSLCNLRASVTRGLNPKQDYCSICLQQYKRRQEMADEIIVFSCGHLYHSFCLQNKECTVEFEGQTRWTCYKCSSSNKVGKLSENSSEIKKGRITPSQVKMSPSYHQSKGDPTAKKGTSEPVLDPQQIQAFDQLCRLYRGSSRLALLTELSQNRSSESYRPFSGSQSAPAFNSIFQNENFQLQLIPPPVTED
Take B4: in experiment [1], the binding entry is reported as “binds”.

Values taken from PMC6639074.
